This continues a long series; more values of the same kind are listed elsewhere.
System: N. gonorrhoeae
Test: In vitro time-kill assay
Format: cell-based, Neisseria gonorrhoeae
Text: The 2024 WHO N. gonorrhoeae reference strains were used for quality control. Only whole MIC doubling dilutions are reported. Clinical breakpoints or the epidemiological cutoff (ECOFF, to indicate azithromycin resistance) from EUCAST (v14.0, https://www.eucast.org/clinical_breakpoints) were used to classify isolates as antimicrobial susceptible or resistant. […] Two times the standard inoculum defined by CLSI was used to establish consistent growth in untreated control samples for some strains. In vitro time-kill assays were performed according to CLSI guidelines[65] using Columbia Broth (BD Difco) supplemented with 1% IsoVitaleX Enrichment (BD). Viable bacterial counts were generated by plating 10-fold serially diluted samples on GC agar plates containing 1% IsoVitaleX Enrichment (BD).

## Cc1c(CN(C)C(=O)/C=C/c2cnc3c(c2)N[C@H](C)[C@H](O)C(=O)N3)oc2ccccc12 [Debio 1453]
6926, 2X MIC, 0 hr
  Log10CFU/ml (time kill): 6.26 Log10CFU/ml
6926, 2X MIC, 1 hr
  Log10CFU/ml (time kill): 5.62 Log10CFU/ml
6926, 2X MIC, 3 hr
  Log10CFU/ml (time kill): 5.57 Log10CFU/ml
6926, 2X MIC, 6 hr
  Log10CFU/ml (time kill): 4.99 Log10CFU/ml
6926, 2X MIC, 10 hr
  Log10CFU/ml (time kill): 4.11 Log10CFU/ml
6926, 2X MIC, 24 hr
  Log10CFU/ml (time kill): 1.95 Log10CFU/ml
6926, 4X MIC, 0 hr
  Log10CFU/ml (time kill): 6.24 Log10CFU/ml
6926, 4X MIC, 1 hr
  Log10CFU/ml (time kill): 5.83 Log10CFU/ml
6926, 4X MIC, 3 hr
  Log10CFU/ml (time kill): 5.05 Log10CFU/ml
6926, 4X MIC, 6 hr
  Log10CFU/ml (time kill): 4.86 Log10CFU/ml
6926, 4X MIC, 10 hr
  Log10CFU/ml (time kill): 3.72 Log10CFU/ml
6926, 4X MIC, 24 hr
  Log10CFU/ml (time kill): 1.95 Log10CFU/ml
6926, 8X MIC, 0 hr
  Log10CFU/ml (time kill): 6.17 Log10CFU/ml
6926, 8X MIC, 1 hr
  Log10CFU/ml (time kill): 5.80 Log10CFU/ml
6926, 8X MIC, 3 hr
  Log10CFU/ml (time kill): 5.08 Log10CFU/ml
6926, 8X MIC, 6 hr
  Log10CFU/ml (time kill): 4.62 Log10CFU/ml
6926, 8X MIC, 10 hr
  Log10CFU/ml (time kill): 3.04 Log10CFU/ml
6926, 8X MIC, 24 hr
  Log10CFU/ml (time kill): 1.95 Log10CFU/ml
6926, 16X MIC, 0 hr
  Log10CFU/ml (time kill): 6.16 Log10CFU/ml
6926, 16X MIC, 1 hr
  Log10CFU/ml (time kill): 6.03 Log10CFU/ml
6926, 16X MIC, 3 hr
  Log10CFU/ml (time kill): 5.23 Log10CFU/ml
6926, 16X MIC, 6 hr
  Log10CFU/ml (time kill): 4.89 Log10CFU/ml
6926, 16X MIC, 10 hr
  Log10CFU/ml (time kill): 1.95 Log10CFU/ml
6926, 16X MIC, 24 hr
  Log10CFU/ml (time kill): 1.95 Log10CFU/ml
ATCC 49226, 4X MIC, 1 hr
  Log10CFU/ml (time kill): 5.93 Log10CFU/ml
ATCC 49226, 4X MIC, 3 hr
  Log10CFU/ml (time kill): 5.41 Log10CFU/ml
ATCC 49226, 4X MIC, 6 hr
  Log10CFU/ml (time kill): 3.96 Log10CFU/ml
ATCC 49226, 4X MIC, 10 hr
  Log10CFU/ml (time kill): 2.30 Log10CFU/ml
ATCC 49226, 4X MIC, 24 hr
  Log10CFU/ml (time kill): 1.95 Log10CFU/ml
ATCC 49226, 8X MIC, 0 hr
  Log10CFU/ml (time kill): 5.95 Log10CFU/ml
ATCC 49226, 8X MIC, 1 hr
  Log10CFU/ml (time kill): 5.82 Log10CFU/ml
ATCC 49226, 8X MIC, 3 hr
  Log10CFU/ml (time kill): 5.40 Log10CFU/ml
ATCC 49226, 8X MIC, 6 hr
  Log10CFU/ml (time kill): 3.45 Log10CFU/ml
ATCC 49226, 8X MIC, 10 hr
  Log10CFU/ml (time kill): 1.95 Log10CFU/ml
ATCC 49226, 8X MIC, 24 hr
  Log10CFU/ml (time kill): 1.95 Log10CFU/ml
ATCC 49226, 16X MIC, 0 hr
  Log10CFU/ml (time kill): 5.97 Log10CFU/ml
ATCC 49226, 16X MIC, 1 hr
  Log10CFU/ml (time kill): 5.96 Log10CFU/ml
ATCC 49226, 16X MIC, 3 hr
  Log10CFU/ml (time kill): 5.72 Log10CFU/ml
ATCC 49226, 16X MIC, 6 hr
  Log10CFU/ml (time kill): 3.18 Log10CFU/ml
ATCC 49226, 16X MIC, 10 hr
  Log10CFU/ml (time kill): 1.95 Log10CFU/ml
ATCC 49226, 16X MIC, 24 hr
  Log10CFU/ml (time kill): 1.95 Log10CFU/ml
ATCC 700825, 2X MIC, 0 hr
  Log10CFU/ml (time kill): 6.51 Log10CFU/ml
ATCC 700825, 2X MIC, 1 hr
  Log10CFU/ml (time kill): 6.40 Log10CFU/ml
ATCC 700825, 2X MIC, 3 hr
  Log10CFU/ml (time kill): 6.03 Log10CFU/ml
ATCC 700825, 2X MIC, 6 hr
  Log10CFU/ml (time kill): 4.87 Log10CFU/ml
ATCC 700825, 2X MIC, 10 hr
  Log10CFU/ml (time kill): 2.60 Log10CFU/ml
ATCC 700825, 2X MIC, 24 hr
  Log10CFU/ml (time kill): 1.95 Log10CFU/ml
ATCC 700825, 4X MIC, 0 hr
  Log10CFU/ml (time kill): 6.40 Log10CFU/ml
ATCC 700825, 4X MIC, 1 hr
  Log10CFU/ml (time kill): 6.29 Log10CFU/ml
ATCC 700825, 4X MIC, 3 hr
  Log10CFU/ml (time kill): 5.90 Log10CFU/ml
ATCC 700825, 4X MIC, 6 hr
  Log10CFU/ml (time kill): 4.82 Log10CFU/ml
ATCC 700825, 4X MIC, 10 hr
  Log10CFU/ml (time kill): 2.60 Log10CFU/ml
ATCC 700825, 4X MIC, 24 hr
  Log10CFU/ml (time kill): 1.95 Log10CFU/ml
ATCC 700825, 8X MIC, 0 hr
  Log10CFU/ml (time kill): 6.42 Log10CFU/ml
ATCC 700825, 8X MIC, 1 hr
  Log10CFU/ml (time kill): 6.27 Log10CFU/ml
ATCC 700825, 8X MIC, 3 hr
  Log10CFU/ml (time kill): 5.83 Log10CFU/ml
ATCC 700825, 8X MIC, 6 hr
  Log10CFU/ml (time kill): 4.99 Log10CFU/ml
ATCC 700825, 8X MIC, 10 hr
  Log10CFU/ml (time kill): 2.48 Log10CFU/ml
ATCC 700825, 8X MIC, 24 hr
  Log10CFU/ml (time kill): 1.95 Log10CFU/ml
ATCC 700825, 16X MIC, 0 hr
  Log10CFU/ml (time kill): 6.44 Log10CFU/ml
ATCC 700825, 16X MIC, 1 hr
  Log10CFU/ml (time kill): 6.23 Log10CFU/ml
ATCC 700825, 16X MIC, 3 hr
  Log10CFU/ml (time kill): 5.67 Log10CFU/ml
ATCC 700825, 16X MIC, 6 hr
  Log10CFU/ml (time kill): 4.88 Log10CFU/ml
ATCC 700825, 16X MIC, 10 hr
  Log10CFU/ml (time kill): 2.90 Log10CFU/ml
ATCC 700825, 16X MIC, 24 hr
  Log10CFU/ml (time kill): 1.95 Log10CFU/ml
WHO V, 16X MIC, 6 hr
  Log10CFU/ml (time kill): 4.09 Log10CFU/ml
WHO V, 16X MIC, 10 hr
  Log10CFU/ml (time kill): 1.95 Log10CFU/ml
WHO V, 16X MIC, 24 hr
  Log10CFU/ml (time kill): 1.95 Log10CFU/ml
WHO X, 2X MIC, 0 hr
  Log10CFU/ml (time kill): 5.77 Log10CFU/ml
WHO X, 2X MIC, 1 hr
  Log10CFU/ml (time kill): 5.70 Log10CFU/ml

— article PMC12446476 (Nature Communications, 2025)
